Not every detail of the peptide structures is certain; ends, links or a residue may be inferred. Square brackets hold non-standard residues; d marks the D form. Peptide text beside a SMILES is read from it.
Test system: 14 clinical isolates of resistant bacterial strains
Assay: Activity against the panel of 14 clinical isolates of resistant bacterial strains
Assay type: cell-based
Settings: 14 resistant isolates, FIG. 1, up to the highest concentration tested

Row | Compound | Sterilization of / activity against the resistant clinical isolates (in words) | Sterilization of / activity against the resistant clinical isolates (in words) (listed as D-CONGA-Q)
1 | CC(C)C[C@@H](NC(=O)[C@@H](CCCNC(=N)N)NC(=O)[C@@H](CCCNC(=N)N)NC(=O)[C@@H](C)NC(=O)[C@@H](Cc1c[nH]c2ccccc12)NC(=O)[C@@H](CCCNC(=N)N)NC(=O)[C@H](N)CCCNC(=N)N)C(=O)N[C@H](C)C(=O)N[C@H](Cc1ccccc1)C(=O)N[C@H](C)C(=O)N[C@H](Cc1ccccc1)C(=O)N[C@H](CCCNC(=N)N)C(=O)N[C@H](CCCNC(=N)N)C(N)=O [D-CONGA, rrwarrlafafrr (All D), reference compound] (H-[dR][dR][dW][dA][dR][dR][dL][dA][dF][dA][dF][dR][dR]-NH2) | able to sterilize all the resistant isolates | 
2 | CC(C)C[C@@H](NC(=O)[C@@H](CCC(N)=O)NC(=O)[C@@H](CCCNC(=N)N)NC(=O)[C@@H](CCCNC(=N)N)NC(=O)[C@@H](C)NC(=O)[C@@H](Cc1c[nH]c2ccccc12)NC(=O)[C@@H](CCCNC(=N)N)NC(=O)[C@H](N)CCCNC(=N)N)C(=O)N[C@H](C)C(=O)N[C@H](Cc1ccccc1)C(=O)N[C@H](C)C(=O)N[C@H](Cc1ccccc1)C(=O)N[C@H](CCCNC(=N)N)C(=O)N[C@H](CCCNC(=N)N)C(N)=O [D-CONGA-Q7, rrwarrqlafafrr (All D)] (H-[dR][dR][dW][dA][dR][dR][dQ][dL][dA][dF][dA][dF][dR][dR]-NH2) | outperformed D-CONGA as well as major conventional antibiotics | able to sterilize all the resistant isolates

— patent US20230310540A1, “PEPTIDE COMPOSITIONS AND METHODS OF USE THEREOF” (priority 2020, published 2023)
